Values quoted from earlier work as cited in patent US20150182479A1, “Method of delivering agmatine for medical treatment” (TOPAZ VENTURES, INC., priority 2013, published 2015).
Where “and” joins values, the source holds several entries; their conditions need not be identical. Equal entries are not always repeated. Entries after “also recorded” stand apart in the source; their conditions may differ. Where two headings read alike, the source gives them in different places. At least one compound was matched to its structure with a doubt left.

Assays:
TBI rats = details: ischemic cortex 7 days after TBI
[1] = test system: fluid percussion brain injury in rats
mice = details: 360-min observation period
mouse [2] = test system: mouse
[3] = test system: diffuse brain injury in rats
mice subjected to SCI = details: for Basso Mouse Scale (BMS) score: Agm 100 mg/kg/day i.p.; for average Olig-2+ cells (oligodendrocytes), CAST / total number of GFAP+ cells (astrocytes), CAST: Th 8-Th 10 segments
mouse [4] = details: FST; agonists ip, agmatine-raising drugs icv
[5] = agmatine 50 mg/kg i.p. immediately after TBI/FPI
[6] = agmatine 50 mg/kg i.p. immediately after TBI, within 120 min
[7] = 1, 7, 14, 35 DPI, significant at 7 & 14 DPI
[8] = 4 days after transient cerebral ischemia
[9] = agmatine 100 mg/kg i.p., 4 days after MCAO

**Q.** With `NCCCCN=C(N)N` [agmatine, 4-aminobutyl guanidine] as the compound, how does the “neuronal loss: NeuN-positive cells” value (TBI rats; agmatine 50 mg/kg i.p.) read?
**A.** 82

**Q.** What about the GDNF-positive cells (TBI rats) of the same compound?
**A.** significantly decreased

**Q.** And the caspase-3-positive cells (TBI rats)?
**A.** significantly decreased

**Q.** What about the “body weight loss between first and third day” value ([1]; agmatine 50 mg/kg i.p. immediately after FPI) of the same compound?
**A.** significantly attenuated; also recorded: significantly reversed

**Q.** And the “cerebral hypoperfusion (CPP)” value [1, 5]?
**A.** significantly attenuated

**Q.** And the “intracranial hypertension (ICP)” value [1, 5]?
**A.** significantly attenuated

**Q.** And the “TBI-induced increased hippocampal lactate-to-pyruvate ratio” value [1, 6]?
**A.** significantly attenuated

**Q.** And the “TBI-induced increased hippocampal level of glutamate” value [1, 6]?
**A.** significantly attenuated

**Q.** And the “TBI-induced increased hippocampal level of glycerol” value [1, 6]?
**A.** significantly attenuated

**Q.** And the “TBI-induced increased hippocampal level of nitric oxide” value [1, 6]?
**A.** significantly attenuated

**Q.** And the “motor deficits, maximum grip angle on inclined plane” value ([1]; agmatine 50 mg/kg i.p., 72 h after FPI)?
**A.** significantly attenuated; also recorded: reversed significantly

**Q.** And the “cerebral infarction (volume and % incidence)” value ([1]; agmatine 50 mg/kg i.p., 3 days after TBI, TTC staining)?
**A.** significantly attenuated; also recorded: reduced significantly

**Q.** And the “proprioception deficits, % of MPE of proprioception blockade” value ([1]; agmatine, 72 h after FPI)?
**A.** significantly attenuated; also recorded: reversed significantly

**Q.** What about the “tail-flick latency, drug alone” value (mice) of the same compound?
**A.** dose-dependent increase

**Q.** And the “tailflick assay, agmatine administered alone” value (mouse [2]; 0.1 or 10 mg/kg)?
**A.** without effect

**Q.** And the Opioid receptor-mediated analgesia (mouse [2]; acute model)?
**A.** potentiated

**Q.** What about the “K1-receptor-mediated (U50,488H) analgesia” value (mouse [2]; acute model, any dose of agmatine tested) of the same compound?
**A.** not significantly enhanced

**Q.** And the “histopathological score vs saline group” value ([3]; day 1 post-injury)?
**A.** no statistically significant difference; also recorded: no significant differences

**Q.** And the “histopathological score vs saline group” value ([3]; day 3 post-injury)?
**A.** no statistically significant difference; also recorded: no significant differences

**Q.** And the “histopathological score vs saline group” value ([3]; day 8 post-injury)?
**A.** statistically significant improvement

**Q.** What about the “neuronal injury vs saline group” value ([3]; day 8 post-injury) of the same compound?
**A.** less severe

**Q.** What about the “microvascular changes, brain oedema and vascular congestion” value ([3]; saline vs agmatine treatment group) of the same compound?
**A.** more extensive in the saline treatment group

**Q.** What about the “BMP-2 protein expression (western blot) vs EC group” value (mice subjected to SCI; 1, 7, 14, 35 DPI, significant at 1 & 7 DPI) of the same compound?
**A.** increased

**Q.** And the “BMP-7 protein expression (western blot) vs EC group” value (mice subjected to SCI; [7])?
**A.** increased

**Q.** And the “number of BMP-7+/MAP-2+ cells (CAST) vs EC group” value (mice subjected to SCI; [7])?
**A.** increased

**Q.** What about the “total number of BMP-2+/Olig-2+ cells (CAST) vs EC group” value (mice subjected to SCI; [7]) of the same compound?
**A.** higher

**Q.** And the “total number of BMP-2+/MAP-2+ cells (CAST) vs EC group” value (mice subjected to SCI; 1, 7, 14, 35 DPI, significant at 7 & 35 DPI)?
**A.** higher

**Q.** What about the “BMP-4 protein expression (western blot) vs EC group” value (mice subjected to SCI; 1, 7, 14, 35 DPI, significant at 7, 14 and 35 DPI) of the same compound?
**A.** decreased

**Q.** What about the “number of BMP-7+/Olig-2+ cells (CAST) vs EC group” value (mice subjected to SCI; 1, 7, 14, 35 DPI, significant at 7 DPI) of the same compound?
**A.** increased

**Q.** And the “GFAP protein expression (western blot) vs EC group” value (mice subjected to SCI; 1, 7, 14, 35 DPI, significant at 14 DPI)?
**A.** significant decrease

**Q.** What about the “MAP-2 protein expression (western blot) vs EC group” value (mice subjected to SCI; 1, 7, 14, 35 DPI, significant at 14 and 35 DPI) of the same compound?
**A.** increased

**Q.** And the “Olig-2+ cells in rostral (Th 8), lesion (Th 9) and caudal (Th 10) segments (CAST) vs EC group” value (mice subjected to SCI; 1, 7, 14, 35 DPI, significant at 35 DPI, listed as Agm)?
**A.** significant increase

**Q.** And the “Olig-2 protein expression (western blot) vs EC group” value (mice subjected to SCI; 1 DPI to 35 DPI, significant at 35 DPI)?
**A.** increased

**Q.** What about the “GFAP+ cells in total spinal cord and rostral, lesion and caudal segments (CAST) vs EC group” value (mice subjected to SCI; 7, 14 and 35 DPI) of the same compound?
**A.** significant decrease

**Q.** And the “GFAP immunopositive area (glial scar) vs EC group” value (mice subjected to SCI; 7, 14 and 35 DPI, significant at 14 and 35 DPI)?
**A.** significantly decreased

**Q.** What about the “myelin and neurons stained cells (luxol fast blue) vs EC group” value (mice subjected to SCI; 14 and 35 DPI) of the same compound?
**A.** remarkable increase

**Q.** What about the “p53+ cells / p53 expression in the lesion site vs EC group” value (mice subjected to SCI; 14 and 35 DPI, listed as Agm) of the same compound?
**A.** fewer numbers; also recorded: substantially decreased

**Q.** And the “NG2+/BMP-7+ cells around the lesion site vs EC group” value (mice subjected to SCI; 35 DPI)?
**A.** increased

**Q.** And the “NeuN+/NF+ cells (immunofluorescence) vs EC group” value (mice subjected to SCI; 35 DPI)?
**A.** higher number

**Q.** What about the “Olig-2+/MBP+ cells (confocal) vs EC group” value (mice subjected to SCI; 35 DPI) of the same compound?
**A.** higher intensity

**Q.** And the “myelination in white matter of lesioned spinal cord (TEM) vs EC group” value (mice subjected to SCI; 14 days following SCI)?
**A.** better pattern of myelination

**Q.** What about the “locomotor recovery and bladder function” value (mice subjected to SCI; Agm 100 mg/kg/day i.p. within 1 hour after SCI until 35 days) of the same compound?
**A.** improvement

**Q.** What about the “Basso Mouse Scale (BMS) score” value (mice subjected to SCI; 1 DPI) of the same compound?
**A.** 0

**Q.** And the “Basso Mouse Scale (BMS) score” value (mice subjected to SCI; 7 DPI)?
**A.** 2

**Q.** And the “Basso Mouse Scale (BMS) score” value (mice subjected to SCI; 21 DPI)?
**A.** 6.8

**Q.** And the “Basso Mouse Scale (BMS) score” value (mice subjected to SCI; 35 DPI)?
**A.** 8

**Q.** What about the “average Olig-2+ cells (oligodendrocytes), CAST” value (shortened to “average Olig-2+ cells”) (mice subjected to SCI; 1 DPI) of the same compound?
**A.** 5.405.008 6106 cells/mm3

**Q.** And the “average Olig-2+ cells” value (mice subjected to SCI; 7 DPI)?
**A.** 6.965.04 6106 cells/mm3

**Q.** What about the “average Olig-2+ cells” value (mice subjected to SCI; 14 DPI) of the same compound?
**A.** 8.031.112 6106 cells/mm3

**Q.** And the “average Olig-2+ cells” value (mice subjected to SCI; 35 DPI)?
**A.** 12.431 6106 cells/mm3

**Q.** What about the “total number of GFAP+ cells (astrocytes), CAST” value (shortened to “total number of GFAP+ cells”) (mice subjected to SCI; 35 DPI) of the same compound?
**A.** 2.504.055 6106 cells/mm3

**Q.** What about the “total number of GFAP+ cells” value (mice subjected to SCI; 1 day) of the same compound?
**A.** 1.503.005 6106 cells/mm3

**Q.** What about the “total number of GFAP+ cells” value (mice subjected to SCI; 7 days) of the same compound?
**A.** 2.206.108 6106 cells/mm3

**Q.** What about the “total number of GFAP+ cells” value (mice subjected to SCI; 14 days) of the same compound?
**A.** 2.396.086 6106 cells/mm3

**Q.** What about the “serotonergic fibers (5-HT immunostaining)” value (mice subjected to SCI; distal/caudal spinal cord, 14 and 35 DPI) of the same compound?
**A.** dense network

**Q.** And the “peak residual urine volumes vs saline group” value (mice subjected to SCI; from 4 day until 10 days)?
**A.** significantly reduced

**Q.** What about the “reduction of brain edema formation” value (MCAO-injured rats; [8]) of the same compound?
**A.** 50%

**Q.** And the “reduction of cerebral infarct volume” value (MCAO-injured rats; [8])?
**A.** 87%

**Q.** And the “reduction of functional deficits” value (MCAO-injured rats; [8])?
**A.** 70%

**Q.** And the “motor deficits, maximal grip angle” value (MCAO-injured rats; agmatine 100 mg/kg i.p. 5 min after reperfusion and once daily for next 3 days, 2-4 days after MCAO)?
**A.** 62 degrees

**Q.** What about the proprioception blockade (MCAO-injured rats; agmatine 100 mg/kg i.p., 2-4 days after MCAO) of the same compound?
**A.** 10 % maximal possible effect

**Q.** And the AQP4 positive cells (MCAO-injured rats; [9])?
**A.** 84 per section

**Q.** And the brain infarction volume (MCAO-injured rats; [9])?
**A.** 50 mm3

**Q.** And the “edema: cerebral water content” value (MCAO-injured rats; [9])?
**A.** 79.4%

**Q.** And the neuronal apoptotic cells (MCAO-injured rats; [9])?
**A.** 20 per section

**Q.** What about the “neurotoxicity: iNOS expression cells” value (MCAO-injured rats; [9]) of the same compound?
**A.** 7 per section

**Q.** What about the “gliosis: GFAP-positive cells” value (MCAO-injured rats; agmatine 100 mg/kg i.p., 4 days after MCAO (per section)) of the same compound?
**A.** 30 and 20

**Q.** And the “effect on antidepressant like effect of fluoxetine or paroxetine” value (mouse [4])?
**A.** potentiated
